Assay results taken from the supplement of paper PMC12067093, “Discovery and optimisation of a covalent ligand for TRIM25 and its application to targeted protein ubiquitination” (Chemical Science, 2025).
This is one part of the list.

Sequences of proteins named here, by UniProt entry; tags and fusion partners are left off. A change or cut given only in a name is not applied to a line headed by its entry.
UniProt P49589: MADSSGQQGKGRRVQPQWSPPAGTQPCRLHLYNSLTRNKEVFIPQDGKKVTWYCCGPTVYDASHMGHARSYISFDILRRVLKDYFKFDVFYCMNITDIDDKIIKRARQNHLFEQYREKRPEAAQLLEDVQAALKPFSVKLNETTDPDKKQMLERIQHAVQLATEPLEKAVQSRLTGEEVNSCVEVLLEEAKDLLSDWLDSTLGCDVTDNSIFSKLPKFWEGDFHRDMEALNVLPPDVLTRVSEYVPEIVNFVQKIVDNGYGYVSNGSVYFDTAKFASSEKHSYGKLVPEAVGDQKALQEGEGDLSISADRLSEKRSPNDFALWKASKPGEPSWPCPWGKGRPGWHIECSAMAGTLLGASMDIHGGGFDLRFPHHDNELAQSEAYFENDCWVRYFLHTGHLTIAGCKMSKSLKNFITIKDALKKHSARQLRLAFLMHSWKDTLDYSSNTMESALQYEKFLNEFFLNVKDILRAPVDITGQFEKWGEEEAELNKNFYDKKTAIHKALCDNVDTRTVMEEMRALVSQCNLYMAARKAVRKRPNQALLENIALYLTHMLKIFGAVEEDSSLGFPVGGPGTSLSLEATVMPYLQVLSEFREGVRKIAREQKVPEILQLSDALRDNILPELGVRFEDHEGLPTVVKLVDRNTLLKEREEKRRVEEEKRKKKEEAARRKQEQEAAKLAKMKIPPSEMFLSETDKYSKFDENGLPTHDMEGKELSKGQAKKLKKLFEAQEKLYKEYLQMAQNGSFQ
UniProt P17655: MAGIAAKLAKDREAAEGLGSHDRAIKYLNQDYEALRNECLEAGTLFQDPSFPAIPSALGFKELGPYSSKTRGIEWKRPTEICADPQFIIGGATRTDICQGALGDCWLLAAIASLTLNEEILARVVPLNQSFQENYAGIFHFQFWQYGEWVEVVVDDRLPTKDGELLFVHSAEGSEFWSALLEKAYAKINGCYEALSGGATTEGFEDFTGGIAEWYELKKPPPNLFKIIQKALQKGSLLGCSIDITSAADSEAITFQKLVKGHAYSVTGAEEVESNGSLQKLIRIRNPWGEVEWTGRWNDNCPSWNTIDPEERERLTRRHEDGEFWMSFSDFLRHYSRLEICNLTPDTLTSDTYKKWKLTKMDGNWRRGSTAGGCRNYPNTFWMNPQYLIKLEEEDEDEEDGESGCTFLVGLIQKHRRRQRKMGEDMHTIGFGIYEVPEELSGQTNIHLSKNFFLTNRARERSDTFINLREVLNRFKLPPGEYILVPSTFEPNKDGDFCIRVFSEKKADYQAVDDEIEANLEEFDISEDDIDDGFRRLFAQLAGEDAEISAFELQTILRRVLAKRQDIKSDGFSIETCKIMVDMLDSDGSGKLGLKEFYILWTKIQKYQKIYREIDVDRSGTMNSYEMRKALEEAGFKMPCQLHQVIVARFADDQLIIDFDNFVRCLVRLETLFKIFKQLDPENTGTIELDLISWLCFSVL
UniProt Q14790: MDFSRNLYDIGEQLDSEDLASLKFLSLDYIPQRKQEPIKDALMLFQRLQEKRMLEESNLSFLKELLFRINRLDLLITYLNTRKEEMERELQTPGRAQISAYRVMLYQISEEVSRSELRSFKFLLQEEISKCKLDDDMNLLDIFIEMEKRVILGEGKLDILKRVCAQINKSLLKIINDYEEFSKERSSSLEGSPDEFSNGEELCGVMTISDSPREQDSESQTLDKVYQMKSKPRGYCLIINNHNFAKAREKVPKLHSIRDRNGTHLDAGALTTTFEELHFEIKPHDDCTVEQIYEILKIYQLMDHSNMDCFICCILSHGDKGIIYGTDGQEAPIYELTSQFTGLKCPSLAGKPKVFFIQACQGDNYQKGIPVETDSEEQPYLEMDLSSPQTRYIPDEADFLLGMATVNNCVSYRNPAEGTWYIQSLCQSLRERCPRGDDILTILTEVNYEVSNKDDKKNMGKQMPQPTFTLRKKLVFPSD
UniProt Q9Y6W3: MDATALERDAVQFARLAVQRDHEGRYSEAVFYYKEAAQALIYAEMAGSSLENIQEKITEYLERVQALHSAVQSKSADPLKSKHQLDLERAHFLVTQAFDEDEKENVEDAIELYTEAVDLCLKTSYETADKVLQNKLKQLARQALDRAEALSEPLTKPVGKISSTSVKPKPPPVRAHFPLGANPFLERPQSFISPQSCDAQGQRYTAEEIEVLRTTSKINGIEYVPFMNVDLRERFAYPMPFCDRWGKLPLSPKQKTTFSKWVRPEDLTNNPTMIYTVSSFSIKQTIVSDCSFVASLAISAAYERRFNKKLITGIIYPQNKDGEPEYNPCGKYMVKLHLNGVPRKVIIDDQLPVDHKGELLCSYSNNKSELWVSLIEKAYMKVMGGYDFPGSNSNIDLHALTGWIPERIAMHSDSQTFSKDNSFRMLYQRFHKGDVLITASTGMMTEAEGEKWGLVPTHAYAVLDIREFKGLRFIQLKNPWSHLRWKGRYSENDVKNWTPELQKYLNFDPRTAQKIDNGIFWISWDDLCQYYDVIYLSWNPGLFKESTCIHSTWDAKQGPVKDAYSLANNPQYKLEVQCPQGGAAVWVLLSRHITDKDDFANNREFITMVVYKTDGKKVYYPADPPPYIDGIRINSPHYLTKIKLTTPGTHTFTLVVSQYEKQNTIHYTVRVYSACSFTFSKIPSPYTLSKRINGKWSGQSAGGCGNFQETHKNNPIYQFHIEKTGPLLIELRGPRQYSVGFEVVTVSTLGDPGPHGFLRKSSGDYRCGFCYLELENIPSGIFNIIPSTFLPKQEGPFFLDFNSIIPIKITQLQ
UniProt Q01518, whole entry, looked up: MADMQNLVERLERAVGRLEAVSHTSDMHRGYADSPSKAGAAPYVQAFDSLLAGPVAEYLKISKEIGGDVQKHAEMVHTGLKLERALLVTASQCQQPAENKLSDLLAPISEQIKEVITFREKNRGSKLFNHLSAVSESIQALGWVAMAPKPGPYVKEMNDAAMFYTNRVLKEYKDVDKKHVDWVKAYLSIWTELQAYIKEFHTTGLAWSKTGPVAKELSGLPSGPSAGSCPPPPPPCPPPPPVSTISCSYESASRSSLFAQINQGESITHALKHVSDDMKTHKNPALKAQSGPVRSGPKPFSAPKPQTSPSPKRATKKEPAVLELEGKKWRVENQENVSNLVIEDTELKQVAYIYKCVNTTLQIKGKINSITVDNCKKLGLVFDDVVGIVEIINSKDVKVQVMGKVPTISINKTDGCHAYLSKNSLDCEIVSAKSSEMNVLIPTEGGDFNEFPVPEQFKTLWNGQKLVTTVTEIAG
UniProt Q8IX12: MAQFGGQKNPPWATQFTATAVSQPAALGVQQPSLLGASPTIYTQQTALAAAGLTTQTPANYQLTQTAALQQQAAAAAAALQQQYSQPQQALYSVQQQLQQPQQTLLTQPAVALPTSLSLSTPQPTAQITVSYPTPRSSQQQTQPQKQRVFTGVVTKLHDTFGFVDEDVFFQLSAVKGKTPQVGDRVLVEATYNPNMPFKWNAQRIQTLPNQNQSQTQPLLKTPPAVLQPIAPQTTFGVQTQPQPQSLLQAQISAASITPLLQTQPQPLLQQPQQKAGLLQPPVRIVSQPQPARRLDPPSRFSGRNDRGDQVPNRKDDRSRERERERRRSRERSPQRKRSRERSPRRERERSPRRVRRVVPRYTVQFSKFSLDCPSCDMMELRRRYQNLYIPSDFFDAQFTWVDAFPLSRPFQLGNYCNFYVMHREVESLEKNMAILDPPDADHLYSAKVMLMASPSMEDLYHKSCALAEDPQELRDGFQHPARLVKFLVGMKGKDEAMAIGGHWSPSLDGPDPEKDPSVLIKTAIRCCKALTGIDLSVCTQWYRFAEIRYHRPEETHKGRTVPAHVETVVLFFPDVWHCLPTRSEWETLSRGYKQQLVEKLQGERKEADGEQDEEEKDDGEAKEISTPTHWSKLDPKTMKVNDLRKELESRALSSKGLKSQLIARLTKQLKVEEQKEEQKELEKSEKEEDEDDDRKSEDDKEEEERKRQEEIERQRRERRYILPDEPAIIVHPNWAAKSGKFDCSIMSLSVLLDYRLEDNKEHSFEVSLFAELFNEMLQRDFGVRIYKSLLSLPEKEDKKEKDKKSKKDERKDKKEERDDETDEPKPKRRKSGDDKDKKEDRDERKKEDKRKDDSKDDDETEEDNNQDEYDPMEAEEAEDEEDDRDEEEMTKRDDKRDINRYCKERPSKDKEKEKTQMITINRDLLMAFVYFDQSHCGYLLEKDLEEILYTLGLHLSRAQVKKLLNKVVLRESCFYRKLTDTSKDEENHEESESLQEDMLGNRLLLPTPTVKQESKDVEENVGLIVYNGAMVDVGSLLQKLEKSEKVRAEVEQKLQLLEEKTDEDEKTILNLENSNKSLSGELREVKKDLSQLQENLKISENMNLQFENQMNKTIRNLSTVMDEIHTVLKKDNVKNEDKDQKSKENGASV
UniProt P42574: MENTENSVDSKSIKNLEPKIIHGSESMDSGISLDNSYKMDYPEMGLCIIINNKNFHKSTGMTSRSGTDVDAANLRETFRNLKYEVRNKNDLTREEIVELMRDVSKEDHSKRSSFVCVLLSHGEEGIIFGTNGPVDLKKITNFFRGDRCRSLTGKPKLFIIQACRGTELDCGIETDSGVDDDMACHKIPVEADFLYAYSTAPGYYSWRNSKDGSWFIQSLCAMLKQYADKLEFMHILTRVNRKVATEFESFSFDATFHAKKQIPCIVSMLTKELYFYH
UniProt P29466: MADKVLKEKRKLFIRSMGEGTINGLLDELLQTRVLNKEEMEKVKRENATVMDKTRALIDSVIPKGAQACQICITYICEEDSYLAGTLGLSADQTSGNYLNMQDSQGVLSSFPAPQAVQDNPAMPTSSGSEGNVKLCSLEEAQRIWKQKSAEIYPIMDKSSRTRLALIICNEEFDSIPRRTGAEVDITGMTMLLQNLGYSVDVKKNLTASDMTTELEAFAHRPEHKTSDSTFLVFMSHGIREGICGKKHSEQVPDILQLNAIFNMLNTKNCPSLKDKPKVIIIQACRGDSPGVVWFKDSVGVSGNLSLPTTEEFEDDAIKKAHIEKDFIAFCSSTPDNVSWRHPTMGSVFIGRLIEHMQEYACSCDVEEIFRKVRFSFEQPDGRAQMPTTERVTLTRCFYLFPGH
UniProt P04040: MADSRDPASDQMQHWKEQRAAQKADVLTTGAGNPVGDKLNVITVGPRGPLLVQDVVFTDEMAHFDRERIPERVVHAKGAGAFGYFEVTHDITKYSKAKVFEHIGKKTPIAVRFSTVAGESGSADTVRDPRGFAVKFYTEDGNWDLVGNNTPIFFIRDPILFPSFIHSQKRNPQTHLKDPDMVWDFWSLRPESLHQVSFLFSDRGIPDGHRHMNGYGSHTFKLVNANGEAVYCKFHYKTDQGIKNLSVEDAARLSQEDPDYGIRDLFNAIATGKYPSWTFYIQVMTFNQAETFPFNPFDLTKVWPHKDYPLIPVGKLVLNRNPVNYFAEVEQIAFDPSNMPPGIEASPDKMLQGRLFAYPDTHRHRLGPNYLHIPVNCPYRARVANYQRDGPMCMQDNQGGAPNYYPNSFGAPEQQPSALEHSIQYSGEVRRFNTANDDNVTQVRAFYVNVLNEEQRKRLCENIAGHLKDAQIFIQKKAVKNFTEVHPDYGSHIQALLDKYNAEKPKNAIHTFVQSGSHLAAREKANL
UniProt P42575: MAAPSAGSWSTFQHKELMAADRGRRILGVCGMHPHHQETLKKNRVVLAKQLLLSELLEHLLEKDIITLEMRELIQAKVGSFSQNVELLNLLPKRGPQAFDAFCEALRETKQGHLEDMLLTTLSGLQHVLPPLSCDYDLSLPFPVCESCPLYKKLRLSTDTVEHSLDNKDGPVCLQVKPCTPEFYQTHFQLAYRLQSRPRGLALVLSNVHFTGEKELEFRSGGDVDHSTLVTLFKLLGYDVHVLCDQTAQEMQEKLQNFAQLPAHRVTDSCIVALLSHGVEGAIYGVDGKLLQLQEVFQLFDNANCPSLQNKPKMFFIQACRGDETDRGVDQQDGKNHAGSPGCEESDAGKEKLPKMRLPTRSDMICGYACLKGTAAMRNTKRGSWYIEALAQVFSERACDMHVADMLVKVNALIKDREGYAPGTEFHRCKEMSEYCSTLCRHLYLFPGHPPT
UniProt P20248, whole entry, looked up: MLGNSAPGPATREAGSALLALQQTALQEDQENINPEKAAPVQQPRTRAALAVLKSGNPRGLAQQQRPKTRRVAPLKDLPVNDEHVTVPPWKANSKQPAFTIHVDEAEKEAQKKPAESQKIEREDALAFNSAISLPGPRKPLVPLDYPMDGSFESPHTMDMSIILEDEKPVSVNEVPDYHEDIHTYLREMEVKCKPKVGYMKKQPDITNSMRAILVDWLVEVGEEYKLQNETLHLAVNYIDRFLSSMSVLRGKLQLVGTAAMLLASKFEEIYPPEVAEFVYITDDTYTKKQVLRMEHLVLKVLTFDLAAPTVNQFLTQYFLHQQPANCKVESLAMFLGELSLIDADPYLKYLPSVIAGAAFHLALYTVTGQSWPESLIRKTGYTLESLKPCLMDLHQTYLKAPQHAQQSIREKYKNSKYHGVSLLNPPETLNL
UniProt P13501: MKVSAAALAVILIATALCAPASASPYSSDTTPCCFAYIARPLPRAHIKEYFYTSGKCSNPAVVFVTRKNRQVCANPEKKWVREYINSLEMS

Compound: CC1Cc2ccccc2N1C(=O)C1CCCN(C1)C(=O)CCl (mixture of isomers) [TRIM25 ligand 11 (diastereomer mixture)]
Assay: probe-labelled cysteine peptide fold change vs DMSO (competition) (log2 fold change); higher = less target engagement (more negative = stronger competition)
Conditions: THP-1, incubation time: 4 h
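Note: competitive chemoproteomic profiling in live THP-1 cells with an iodoacetamide desthiobiotin (IA-DTB) probe, comparing probe-labelled peptide intensities in compound-treated cells against DMSO-treated controls.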

Target	probe-labelled cysteine peptide fold change (10 µM)	probe-labelled cysteine peptide fold change (50 µM)
CARS_P49589_27_RVQPQWSPPAGTQPCR (UniProt P49589)	-0.117	0.0505
CCT3_P49368_366_KIGDEYFTFITDCKDPK (UniProt P49368)	-0.323	-0.183
CAPN2_P17655_498_DGDFCIR (UniProt P17655)	0.00623	0.1
CCDC97_Q96F63_122_TGLREEHLACFGHVR (UniProt Q96F63)	-0.0204	0.208
CCAR2_Q8N163_644_GEASEDLCEMALDPELLLLRDDGEEEFAGAK (UniProt Q8N163)	0.182	0.0749
CAPN2_P17655_301_WNDNCPSWNTIDPEER (UniProt P17655)	0.0959	-0.0348
CANX_P27824_360_CESAPGCGVWQR (UniProt P27824)	0.0154	0.0772
CASP8_Q14790-2_188_GEELCGVMTISDSPR (UniProt Q14790)	0.134	0.085
CASP7_P55210_186_LFFIQACR (UniProt P55210)	-0.143	-0.112
CAPN7_Q9Y6W3_120_ENVEDAIELYTEAVDLCLK (UniProt Q9Y6W3)	0.0227	0.0437
CAPN2_P17655_82_RPTEICADPQFIIGGATR (UniProt P17655)	0.0181	-0.0698
CBR3_O75828_150_AFENCSEDLQER (UniProt O75828)	0.421	0.245
CAST_P20810_408_AAAPAPVSEAVCR (UniProt P20810)	-0.143	-0.278
CAP1_Q01518_93_ALLVTASQCQQPAENKLSDLLAPISEQIK (UniProt Q01518)	-0.11	0.282
CARS_P49589_27_VQPQWSPPAGTQPCR (UniProt P49589)	-0.0897	-0.267
CCT3_P49368_372_ACTILLR (UniProt P49368)	0.159	0.0493
CCAR1_Q8IX12_579_TVPAHVETVVLFFPDVWHCLPTR (UniProt Q8IX12)	-0.248	-0.135
CCT3_P49368_40_TCLGPK (UniProt P49368)	0.0333	0.119
CCDC25_Q86WR0_83_ANSIQGCK (UniProt Q86WR0)	-0.0966	-0.0368
CCDC88B_A6NC98_238_EPLCLRPEAPSR (UniProt A6NC98)	0.135	0.201
CASP3_P42574_184_GTELDCGIETDSGVDDDMACHK (UniProt P42574)	0.206	-0.179

Target	probe-labelled cysteine peptide fold change (10 µM)	probe-labelled cysteine peptide fold change (50 µM)
CASP7_P55210_246_GSWFVQALCSILEEHGK (UniProt P55210)	0.0128	0.0373
CASP1_P29466_397_CFYLFPGH (UniProt P29466)	-0.182	-0.00189
CCAR2_Q8N163_324_CCMLFVDDMAEPR (UniProt Q8N163)	-0.0215	-0.194
CCNH_P51946_244_TCLSQLLDIMK (UniProt P51946)	0.203	0.00237
CAT_P04040_377_LGPNYLHIPVNCPYR (UniProt P04040)	0.00564	0.0332
CASP10_Q92851_350_CNPAHADGDCFVFCILTHGR (UniProt Q92851)	0.0596	0.033
CASP1_P29466_362_LIEHMQEYACSCDVEEIFRK (UniProt P29466)	-0.0544	0.036
CC2D1B_Q5T0F9_86_LAADCMR (UniProt Q5T0F9)	-0.187	-0.334
CCS_O14618_113_CLIEGTIDGLEPGLHGLHVHQYGDLTNNCNSCGNHFNPDGASHGGPQDSDR (UniProt O14618)	-0.0799	0.0286
CBR1_P16152_226_ILLNACCPGWVR (UniProt P16152)	-0.00652	-0.0415
CBX4_O00257_185_EAPSPTCPDLGAK (UniProt O00257)	-0.174	-0.317
CCDC47_Q96A33_283_EMQDLSEFCSDKPK (UniProt Q96A33)	0.0239	-0.125
CAPN2_P17655_640_MPCQLHQVIVAR (UniProt P17655)	0.0385	-0.0365
CANX_P27824_160_PLIVQYEVNFQNGIECGGAYVK (UniProt P27824)	0.0907	0.185
CCNY_Q8ND76_39_EDTGCNLQHISDRENIDDLNMEFNPSDHPR (UniProt Q8ND76)	0.0996	-0.159
CARS2_Q9HA77_387_GQLACGSVR (UniProt Q9HA77)	0.0928	0.0168
CASP2_P42575_30_ILGVCGMHPHHQETLKK (UniProt P42575)	-0.263	-0.383
CCDC97_Q96F63_218_TPTHQPPKPGSPGRPACPLSNLLLQSYEER (UniProt Q96F63)	-0.0458	-0.0986
CCT2_P78371_395_SLHDALCVLAQTVK (UniProt P78371)	0.0365	-0.0967
CAPN1_P07384_590_GFSLESCR (UniProt P07384)	0.0866	-0.0715
CASP10_Q92851_169_IDEDNLTCLEDLCK (UniProt Q92851)	-0.0469	0.0215

Quoted at random: five records from the list
Target	probe-labelled cysteine peptide fold change (10 µM)	probe-labelled cysteine peptide fold change (50 µM)
CASP10_Q92851_350_CNPAHADGDCFVFCILTHGR (UniProt Q92851)	0.0596	0.033
CBR1_P16152_226_ILLNACCPGWVR (UniProt P16152)	-0.00652	-0.0415
CASP2_P42575_30_ILGVCGMHPHHQETLKK (UniProt P42575)	-0.263	-0.383
CBX4_O00257_185_EAPSPTCPDLGAK (UniProt O00257)	-0.174	-0.317
CAT_P04040_377_LGPNYLHIPVNCPYR (UniProt P04040)	0.00564	0.0332

Following part.

Target	probe-labelled cysteine peptide fold change (10 µM)	probe-labelled cysteine peptide fold change (50 µM)
CCNA2_P20248_390_KTGYTLESLKPCLMDLHQTYLK (UniProt P20248)	-0.167	-0.296
CCT3_P49368_213_IPGGIIEDSCVLR (UniProt P49368)	-0.0222	0.0929
CASP9_P55211_187_TGSNIDCEK (UniProt P55211)	-0.136	0.00846
CCNL2_Q96S94_190_ELGFCVHVK (UniProt Q96S94)	0.123	0.365
CCAR1_Q8IX12_465_SCALAEDPQELR (UniProt Q8IX12)	0.0332	0.0777
CASP2_P42575_270_VTDSCIVALLSHGVEGAIYGVDGK (UniProt P42575)	-0.0845	0.0634
CASP7_P55210_139_ASEEDHTNAACFACILLSHGEENVIYGK (UniProt P55210)	0.0627	0.151
CCAR1_Q8IX12_937_DLLMAFVYFDQSHCGYLLEK (UniProt Q8IX12)	0.653	0.739
CAPN7_Q9Y6W3_197_AHFPLGANPFLERPQSFISPQSCDAQGQR (UniProt Q9Y6W3)	0.0446	-0.0927
CASP3_P42574_116_RSSFVCVLLSHGEEGIIFGTNGPVDLKK (UniProt P42574)	-0.187	0.0265
CCDC117_Q8IWD4_81_REEEEDDDCPVR (UniProt Q8IWD4)	-0.116	0.115
CAPZA2_P47755_157_IDGQQTIIACIESHQFQAK (UniProt P47755)	0.13	0.153
CCDC47_Q96A33_209_LNQENEHIYNLWCSGR (UniProt Q96A33)	0.0321	-0.0355
CCDC77_Q9BR77_164_IQNLLALVGTDAGEVTYFCK (UniProt Q9BR77)	0.174	-0.335
CAP1_Q01518_356_CVNTTLQIK (UniProt Q01518)	-0.031	0.0667
CASP1_P29466_364_LIEHMQEYACSCDVEEIFR (UniProt P29466)	-0.0418	-0.157
CCDC58_Q4VC31_74_NCIAQTSAVVK (UniProt Q4VC31)	-0.0247	0.0677
CASP2_P42575_305_LLQLQEVFQLFDNANCPSLQNKPK (UniProt P42575)	-0.092	-0.263
CCNK_O75909_99_YVTGACCLFLAGK (UniProt O75909)	0.1	0.32
CCT2_P78371_289_HGINCFINR (UniProt P78371)	-0.0334	0.0506
CCDC22_O60826_441_KLQDCR (UniProt O60826)	-0.0662	-0.108

Target	probe-labelled cysteine peptide fold change (10 µM)	probe-labelled cysteine peptide fold change (50 µM)
CBR1_P16152_122_DVCTELLPLIKPQGR (UniProt P16152)	-0.126	-0.0753
CC2D1B_Q5T0F9_634_CLLFSK (UniProt Q5T0F9)	-0.0196	-0.166
CASP1_P29466_270_NCPSLK (UniProt P29466)	-0.0461	-0.0914
CASP4_P49662_337_YSWCCHLEEVFRK (UniProt P49662)	0.136	0.235
CCNA2_P20248_390_TGYTLESLKPCLMDLHQTYLK (UniProt P20248)	0.156	-0.0607
CCL5_P13501_57_CSNPAVVFVTR (UniProt P13501)	-0.101	-0.209
CARS_P49589_506_ALCDNVDTR (UniProt P49589)	0.0737	-0.0385
CCNE2_O96020_109_NLFINPSPLPDLSWGCSK (UniProt O96020)	-0.108	-0.377
CASP3_P42574_220_DGSWFIQSLCAMLK (UniProt P42574)	-0.306	-0.13
CCT3_P49368_366_KIGDEYFTFITDCK (UniProt P49368)	0.0365	0.0714
CARD6_Q9BX69_637_NMEGLQAALQEVMFSSCLR (UniProt Q9BX69)	0.0602	-0.306
CCNH_P51946_280_CHSAELALNVITK (UniProt P51946)	0.0814	0.00976
CCAR1_Q8IX12_376_FSLDCPSCDMMELR (UniProt Q8IX12)	-0.107	0.0228
CAT_P04040_460_RLCENIAGHLK (UniProt P04040)	-0.043	0.0536
CAPN1_P07384_677_YSEPDLAVDFDNFVCCLVR (UniProt P07384)	0.404	0.364
CC2D1B_Q5T0F9_809_LENECEIR (UniProt Q5T0F9)	0.15	0.151
CASP8_Q14790_312+313_IYQLMDHSNMDCFICCILSHGDK (UniProt Q14790)	-0.175	-0.154
CARM1_Q86X55_193_IVLDVGCGSGILSFFAAQAGAR (UniProt Q86X55)	0.174	-0.117
